Taken from: PubChem BioAssay AID504804 (Drosophila RNAi Screening Center, 2011)
The deposit covers about 19,000 reagents; shown is a random part of those with a known target gene and a result. In the full data, 47 (0.25%) are marked active. 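Signals are raw, not normalised; exact z-scores behind calls not deposited; actives needed confirmation, so some wells reaching 2 SD are inactive.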

- Screen: 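dsRNAs that improve Kc cell survival under doxorubicin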 (primary screen)
- System: Drosophila Kc cells
- Reagent: long dsRNA against Drosophila genes, 0.5 µg dsRNA per well
- Time to read-out: 96 h (48 h knock-down, then 48 h drug)
- Conditions: doxorubicin 5 µg/ml for 48 h, added 48 h after dsRNA
- Measured: 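Viability measured as cellular ATP by luminescence after 48 h knock-down then 48 h doxorubicin at 5 µg/ml; unnormalised plate counts for each replicate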
- Scale: raw ATP luminescence: higher = more viable cells, protection from doxorubicin
- Active means: 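Active when both duplicate wells lie at least 2 SD above the plate mean and protection is confirmed by rescreening and independent dsRNAs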

With CG14443, how do the results read?
raw ATP luminescence, replicate 1: 30450; raw ATP luminescence, replicate 2: 43900; call: inactive

With Josd (Josephin domain containing), what does the deposit list?
raw ATP luminescence, replicate 1: 40310; raw ATP luminescence, replicate 2: 47540; call: inactive

For CG15890, what was measured?
raw ATP luminescence, replicate 1: 3.90e5; raw ATP luminescence, replicate 2: 3.17e5; call: inactive

With CG15537, what does the deposit list?
raw ATP luminescence, replicate 1: 34550; raw ATP luminescence, replicate 2: 42850; call: inactive

For Ccdc85, what does the deposit list?
raw ATP luminescence, replicate 1: 17833; raw ATP luminescence, replicate 2: 12723; call: inactive

Part of the list above in another layout.
{"Target gene": "CG14443", "raw ATP luminescence, replicate 1": 30450, "raw ATP luminescence, replicate 2": 43900, "call": "inactive"}
{"Target gene": "Josd (Josephin domain containing)", "raw ATP luminescence, replicate 1": 40310, "raw ATP luminescence, replicate 2": 47540, "call": "inactive"}

The listing continues.
How did the screen score Scsalpha2 (Succinyl-coenzyme A synthetase alpha subunit 2)?
raw ATP luminescence, replicate 1: 38607; raw ATP luminescence, replicate 2: 39477; call: inactive

Which result is listed for Nup153 (Nucleoporin 153kD)?
raw ATP luminescence, replicate 1: 1.34e5; raw ATP luminescence, replicate 2: 1.03e5; call: inactive

With Noc3 (Nucleolar complex protein 3), how do the results read?
raw ATP luminescence, replicate 1: 43287; raw ATP luminescence, replicate 2: 24237; call: inactive

For xmas, what does the deposit list?
raw ATP luminescence, replicate 1: 1.40e5; raw ATP luminescence, replicate 2: 2.01e5; call: inactive

What did the screen give for ifc (infertile crescent)?
raw ATP luminescence, replicate 1: 1.04e5; raw ATP luminescence, replicate 2: 71460; call: inactive

For hbt (headbutt), what was measured?
raw ATP luminescence, replicate 1: 42207; raw ATP luminescence, replicate 2: 66557; call: inactive

Which result is listed for GILT1 (Gamma-interferon-inducible lysosomal thiol reductase 1)?
raw ATP luminescence, replicate 1: 43950; raw ATP luminescence, replicate 2: 22780; call: inactive
